Test results as given in publication PMC9032445.
Substitutions are numbered along the chain they refer to. No constants are given. Whether binding was seen depends on the method and setting. For part of these data: In cells and extracts the contact can be indirect. Some results given as binding are weak or reduced against the parent protein; the word gives no strength. For part of these data: Where a sequence is shown, tags or fusion partners need not be part of it.

T1: Eme1 fragment (Eme1^1-130) containing SIM1 and SIM2 (S. pombe) (UniProt Q9C103)
T1 sequence: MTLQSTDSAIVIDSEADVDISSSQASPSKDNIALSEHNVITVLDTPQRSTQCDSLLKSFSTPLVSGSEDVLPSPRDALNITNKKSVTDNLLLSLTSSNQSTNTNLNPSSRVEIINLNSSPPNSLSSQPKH

T2: Mus81-6His (S. pombe) (UniProt P87231)
T2 sequence: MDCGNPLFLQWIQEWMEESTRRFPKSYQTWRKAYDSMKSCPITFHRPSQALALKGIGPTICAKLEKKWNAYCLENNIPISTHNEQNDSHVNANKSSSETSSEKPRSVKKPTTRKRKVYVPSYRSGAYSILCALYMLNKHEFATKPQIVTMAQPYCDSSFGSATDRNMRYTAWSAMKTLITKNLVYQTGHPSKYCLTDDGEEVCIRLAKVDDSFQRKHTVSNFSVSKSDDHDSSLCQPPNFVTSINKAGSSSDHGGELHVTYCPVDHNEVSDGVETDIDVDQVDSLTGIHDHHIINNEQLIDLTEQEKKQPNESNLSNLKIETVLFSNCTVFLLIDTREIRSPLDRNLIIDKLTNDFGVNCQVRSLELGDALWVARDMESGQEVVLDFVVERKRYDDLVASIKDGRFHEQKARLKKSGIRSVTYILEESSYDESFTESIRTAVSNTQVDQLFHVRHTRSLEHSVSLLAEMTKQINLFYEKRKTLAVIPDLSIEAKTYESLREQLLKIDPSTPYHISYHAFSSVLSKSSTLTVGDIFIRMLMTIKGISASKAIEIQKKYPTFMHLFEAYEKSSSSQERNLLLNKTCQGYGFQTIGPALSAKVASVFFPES

B1: Pmt3, the unique S. pombe SUMO ortholog (protein, UniProt O13351 1-117)
chain: MSESPSANISDADKSAITPTTGDTSQQDVKPSTEHINLKVVGQDNNEVFFKIKKTTEFSKLMKIYCARQGKSMNSLRFLVDGERIRPDQTPAELDMEDGDQIEAVLEQLGGCTHLCL
B2: MBP-Eme1 (wild type) (protein, UniProt Q9C103 1-735)
chain: MTLQSTDSAIVIDSEADVDISSSQASPSKDNIALSEHNVITVLDTPQRSTQCDSLLKSFSTPLVSGSEDVLPSPRDALNITNKKSVTDNLLLSLTSSNQSTNTNLNPSSRVEIINLNSSPPNSLSSQPKHQEFHLFHTPTIPRTTQLSSKTSSPIVIPDDNEQVASPLSKKAASLTSSPLKDFQSSPPLSTVLQKSHSLHDILLDTNDDDHFPFTQSPLTKTKSFNDALTSSSSILKPCMPSIASPTSNRLSHAPSTPNLFPNQDSSNTIDLINNRSKTSVENQERTFNLTSDVHLDSPTSPSKHSSIEPNTSQEDSFQELPSLNKLSIQSRAFKKMRLPKISRTTDTPPASTSNSNKKNLDKLKKMRKLCSRSLEPYELDSNTQRKRKRYEDSLKKSKTLDKVDSLNRKMAKELDRKNSKELQKINKVKRTKEECLSEIILLSPDDWASSWYSTVRSQLDSYNCQFVVNSNQPKDSIMWKRKVNNVFNSSTNRFELSIEHEQIEPFALLRLKCRDFIKYIEEDQADTFFHEMSEKFKGCKLILLLEGIPNYFKSLKAELNRQYAAAVNSGTRPLLFGSLSKYQNFTKEKLESEIVRFSFEHSILINTSNDEKETAQWIVSFTGDIALSRYKHFSKFSARASTTEIGHVKSADRIENSLNFMLRQILRVTPNIANAICDQFDSIPSLIHHLKTHGEESLTNVVIQSSISERNLGPVLSRRIYNTFLCKEASSDAP
B3: MBP-Eme1^8AQ (all eight SQ/TQ sites mutated to AQ) (protein, UniProt Q9C103 1-735)
chain: B2 chain with S23A, T50A, S126A, T145A, T215A, S313A, T384A, S458A

How the values were obtained:
[1] = biological target: T1, Eme1 fragment (Eme1^1-130) containing SIM1 and SIM2 (S. pombe); assay: two-hybrid; LexA / B42-AD system in S. cerevisiae EGY48 + pSH18-34; Eme1^1-130 as bait; clones spotted onto 3% Gal -URA-TRP-HIS-LEU and 3% Gal -URA-TRP-HIS-Xgal plates, 30°C, 2 to 4 days
[2] = biological target: T2, Mus81-6His (S. pombe); assay: pull-down; co-expression in E. coli Rosetta (DE3) pLysS; cleared lysate on Ni2+ agarose beads (Mus81-6His), imidazole eluate on amylose beads (MBP-Eme1), eluted with 10 mM maltose; 4°C

Binder | binding [1] | binding [2]
B1 | binds | –
B2 | – | binds
B3 | – | binds
